Values from PubChem BioAssay AID686937 (Drosophila RNAi Screening Center, 2013).
The deposit covers about 23,000 reagents; shown is an unselected part of those with a known target gene and a result. 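Reduced-secretion tags in replicate 1 do not always agree with the z-scores; no criterion for assigning the tags was given.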 Names joined by + are all predicted targets of the reagent. The record does not give: the amount of reagent.

Aim: 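Genes whose loss weakens secretory pathway function in fly cells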 (primary screen)
Cell system: Drosophila S2 cells expressing secreted horseradish peroxidase
Knock-down reagent: long dsRNA against Drosophila genes
Time to read-out: about 5.5 days (5 days dsRNA, then 12 h reporter induction)
Treatment: reporter expression induced after 5 days of dsRNA, read 12 h later; inducer not stated
Measured: 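After 5 days of dsRNA and 12 h of reporter induction, medium peroxidase read by chemiluminescence and scored as per-plate z-score; higher values mean more reporter released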
Scale: z-score: higher = more reporter secreted into medium

target	amplicon	z-score, replicate 1	z-score, replicate 2	z-score, replicate 3	z-score, replicate 4	phenotype, replicate 1
CG5262	DRSC11773	0.35	0.26			
Eip63E	DRSC08658	0.25	0.5			
spen	DRSC00839	0.17	0.23			
CG13869 + CG11099	DRSC06428	0.61	0.51			
Polr3K + Tcs1	DRSC05988	0.49	0.29			
CG13123	DRSC02219	0.57	0.4			
Pex5	DRSC18552	0.37	0.38			
Trf4	DRSC00729	0.42	0.27			
CG32320	DRSC21514	0.75	-0.3			
ste24c + CR30461 (retired record)	DRSC05639	0.45	0.37			
ste24c + CR30461 (retired record)	DRSC07316	0.25	0.3			
CG15456	DRSC20527	0.28	0.13			
ValRS	DRSC06864	-0.22	-0.17			
CG34006 (retired record)	DRSC13817	0.35	-1.09			
Nup93-2	DRSC16221	0.21	0.41			
l(2)k14505	DRSC03106	0.29	0.4			
Wwox	DRSC03030	0.14	0.36	-0.91	-0.73	
Wwox	DRSC22872	0.22	2.39			
Cdk7	DRSC18451	-0.06	-0.2			
CG14110	DRSC10113	0.68	0.4			
Nplp1	DRSC04370	0.16	-0.09			
CycA	DRSC09132	-2.94	-3.18			reduced secretion
CycA	DRSC11123	-1.98	-3.03			reduced secretion
CG9550	DRSC03262	0.52	0.53			
Cf2	DRSC00744	-4.47	-1.86			reduced secretion
mRpL21	DRSC11100	0.29	0.6			
MFS10	DRSC19888	0.32	0.41			
DIP-beta	DRSC20461	-0.26	-0.7			
DIP-beta	DRSC20489	0.48	-0.13			
DIP-beta	DRSC20490	0.42	0.26			
DIP-beta	DRSC20505	0.59	0.04			
CG4829	DRSC19920	0.23	0.39			
Dhx15	DRSC06036	-0.04	0			
CdGAPr	DRSC03289	0.32	0.42			
EMC3	DRSC02989	-0.23	-0.45			
PH4alphaNE3	DRSC16541	0.43	0.54			
smp-30	DRSC17059	0.6	0.47			
e(y)3	DRSC19450	-0.51	-0.12			
Vha68-2	DRSC02721	-0.23	0.17			
CG31777	DRSC00201	0.43	0.42			
SNF4Agamma	DRSC13461	-0.56	-0.3			
SNF4Agamma	DRSC13463	0.7	0.52	-0.4	-0.15	
SNF4Agamma	DRSC15879	-0.04	0.16			
SNF4Agamma	DRSC16847	0.62	0.42			
CysRS	DRSC05948	-0.04	0.38	0.27	-0.03	
Tip60	DRSC18661	-0.82	-1.19			
Obp19a	DRSC20487	0.39	0.46			
CG30383	DRSC05062	0.13				
Abp1	DRSC09693	0.39	0.43			
CG8765	DRSC11041	-1.63	-1.11			reduced secretion
hbs	DRSC07627	0.51	0.43			
Ptp52F	DRSC06717	0.12	0.16			
CG13042	DRSC09923	0.18	0.23			
CG15330	DRSC18014	0.31	0.54			
CG6839	DRSC10723	0.34	0.39			
Mul1	DRSC08174	0.27	0.36			
CG34200	DRSC04804	0.08				
zormin	DRSC07969	0.84	0.24			
zormin	DRSC08210	0.24	0.29			
zormin	DRSC08212	0.23	0.37			
zormin	DRSC08213	0.28	0.34			
zormin	DRSC08297	0.3	0.33			
zormin	DRSC08571	0.04	0.18			
zormin	DRSC22483	-0.16	-0.37			
yellow-e	DRSC12966	0.04	0.62			
yellow-e	DRSC16563	0.39	0.21			
TotZ	DRSC13450	-0.81	-0.18			
CG13895	DRSC08365	0.4	0.33			
CR44003 + CG44002	DRSC00523	0.26	0.43			
CR44003 + CG44002	DRSC00606	0.63	0.36			
CG15036	DRSC17968	0.23	-0.11			
Srpk79D	DRSC11668	0.56	0.17			
Srpk79D	DRSC11856	0.3	0.29			
wun	DRSC07719	0.11	0.28			
CG10764	DRSC06000	0.22	0.17			
PpD5	DRSC04641	0.64	0.47			
CG11262	DRSC09831	0.29	0.31			
CG1824	DRSC19796	0.18	0.24			
CG11695	DRSC19416	0.39	0.06			
CG7298	DRSC10802	0.24	0.22			
sgll	DRSC15442	-0.08	0.24			
CG10336	DRSC02037	0.42	0.28			

Records listed so far whose gene name begins with D or d (5):
target	amplicon	z-score, replicate 1	z-score, replicate 2	z-score, replicate 3	z-score, replicate 4	phenotype, replicate 1
DIP-beta	DRSC20461	-0.26	-0.7			
DIP-beta	DRSC20489	0.48	-0.13			
DIP-beta	DRSC20490	0.42	0.26			
DIP-beta	DRSC20505	0.59	0.04			
Dhx15	DRSC06036	-0.04	0			
